# According to patent US20240325334A1, “COMPOSITION FOR GENERATING NITROGEN MONOXIDE” (SEOUL NATIONAL UNIVERSITY R&DB FOUNDATION, priority 2021, published 2024):
# Where a name gives a salt, the structure may show the parent alone.
# Assay: NO generation experiment: compound reacted with H2O2 in the presence of a catalyst, Griess assay
# Conditions: compound 1 mg/ml, PBS pH 5.5, 1 mM H2O2, 37° C., 4 hours
# Protocol: Generation of nitric oxide was investigated by reacting the above-described compounds having a structure of
# with hydrogen peroxide (H2O2) in the presence of a catalyst. After suspending particles including 1 mg/ml of the compound below and the catalyst in a medium composed of 5 ml of PBS at pH 5.5 and hydrogen peroxide (H2O2) at 1 mM concentration, the suspension was subjected to incubation at 37° C. for 4 hours, followed by sampling the supernatant to analyze the NO generation through Griess assay.
smiles,measurement,setting,value
COC(=O)[C@H](CCCNC(=N)N)NS(=O)(=O)c1ccc(C)cc1 [Nα-Tosyl-L-arginine Methyl Ester Hydrochloride],Concentration of generated NO,catalyst Mn-porphyrin 2 mg/ml,45 µM
same,Concentration of generated NO,catalyst PCN-223-Fe 1 mg/ml,187 µM
